Some of the results follow.
Assays:
Assay in all cases: log2 fold change, soluble protein after heating vs DMSO (PISA); higher = thermal stabilisation; K562 cells, 10 uM, 30 min; active = over 0.2 and 3.5 SD of the protein, either way, in both replicates (recomputed)
bafetinib = compound: Cc1ccc(NC(=O)c2ccc(CN3CC[C@H](N(C)C)C3)c(C(F)(F)F)c2)cc1Nc1nccc(-c2cncnc2)n1 [bafetinib]
Procedure, shortened: (§1)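 Soluble protein was defined as the supernatant after 21,000xg for 90 min. It came from K562 cells at 2×10^6 cells/mL given 10 μM compound for 30 min, heated in aliquots for 3 min across 48°C-58°C, pooled, and extracted in PBS with 0.5% NP-40 at 4°C, and was quantified by TMTpro 16plex LC-MS/MS with equalised channel sums. Thermal stability against control samples, from duplicates, is reported as log2 fold change.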

By UniProt entry, the sequences of proteins in these tests, tags left out. Where a name states a change or a piece, a line headed by the entry shows the natural chain unless it says otherwise.
UniProt P25490, whole entry, looked up: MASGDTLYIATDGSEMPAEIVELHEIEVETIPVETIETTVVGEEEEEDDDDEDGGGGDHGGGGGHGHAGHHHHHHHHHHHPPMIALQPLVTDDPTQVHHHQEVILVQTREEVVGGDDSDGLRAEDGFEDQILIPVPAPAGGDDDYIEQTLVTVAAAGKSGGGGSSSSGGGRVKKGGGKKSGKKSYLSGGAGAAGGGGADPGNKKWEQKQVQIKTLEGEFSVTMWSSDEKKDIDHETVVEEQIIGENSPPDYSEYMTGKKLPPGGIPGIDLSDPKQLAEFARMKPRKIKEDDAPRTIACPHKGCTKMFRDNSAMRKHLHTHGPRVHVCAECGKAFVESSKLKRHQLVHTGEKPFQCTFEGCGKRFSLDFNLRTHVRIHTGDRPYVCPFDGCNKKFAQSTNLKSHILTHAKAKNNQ
UniProt Q6PJT7: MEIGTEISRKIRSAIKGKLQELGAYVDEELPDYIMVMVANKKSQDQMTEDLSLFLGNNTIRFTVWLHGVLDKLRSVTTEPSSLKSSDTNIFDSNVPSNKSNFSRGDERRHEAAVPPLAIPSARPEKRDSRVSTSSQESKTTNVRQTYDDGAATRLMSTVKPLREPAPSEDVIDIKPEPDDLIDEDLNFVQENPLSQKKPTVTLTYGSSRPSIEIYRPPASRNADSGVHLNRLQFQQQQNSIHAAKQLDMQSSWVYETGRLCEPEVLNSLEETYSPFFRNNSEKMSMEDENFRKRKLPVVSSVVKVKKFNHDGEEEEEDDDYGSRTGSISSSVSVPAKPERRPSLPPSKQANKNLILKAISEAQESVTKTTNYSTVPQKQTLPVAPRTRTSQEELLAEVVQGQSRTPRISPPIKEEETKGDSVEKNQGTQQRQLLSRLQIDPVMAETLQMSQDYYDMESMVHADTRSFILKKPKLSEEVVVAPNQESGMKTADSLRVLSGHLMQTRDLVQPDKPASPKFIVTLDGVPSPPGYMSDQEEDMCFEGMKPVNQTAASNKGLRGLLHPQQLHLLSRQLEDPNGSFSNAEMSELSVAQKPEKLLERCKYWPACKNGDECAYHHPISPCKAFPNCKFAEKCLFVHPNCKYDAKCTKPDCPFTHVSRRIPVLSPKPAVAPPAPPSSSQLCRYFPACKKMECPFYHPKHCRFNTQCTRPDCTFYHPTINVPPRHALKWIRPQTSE
UniProt Q9BYJ9: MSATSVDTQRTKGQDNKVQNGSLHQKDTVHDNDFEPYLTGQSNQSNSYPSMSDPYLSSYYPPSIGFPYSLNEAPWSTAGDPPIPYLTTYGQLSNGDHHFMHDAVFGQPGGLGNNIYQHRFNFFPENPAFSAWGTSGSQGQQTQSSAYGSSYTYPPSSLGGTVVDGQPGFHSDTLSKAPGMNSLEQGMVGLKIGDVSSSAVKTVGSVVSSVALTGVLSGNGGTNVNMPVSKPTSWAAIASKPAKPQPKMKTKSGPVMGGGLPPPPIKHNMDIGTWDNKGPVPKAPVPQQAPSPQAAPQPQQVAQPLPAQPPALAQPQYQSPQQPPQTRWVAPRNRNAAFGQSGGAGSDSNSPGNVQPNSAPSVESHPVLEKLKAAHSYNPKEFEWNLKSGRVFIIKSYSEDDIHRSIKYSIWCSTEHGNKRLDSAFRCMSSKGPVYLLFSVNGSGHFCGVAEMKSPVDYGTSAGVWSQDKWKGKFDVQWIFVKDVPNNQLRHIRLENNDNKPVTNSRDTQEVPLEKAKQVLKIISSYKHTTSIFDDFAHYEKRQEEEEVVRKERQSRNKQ
UniProt Q9ULJ6: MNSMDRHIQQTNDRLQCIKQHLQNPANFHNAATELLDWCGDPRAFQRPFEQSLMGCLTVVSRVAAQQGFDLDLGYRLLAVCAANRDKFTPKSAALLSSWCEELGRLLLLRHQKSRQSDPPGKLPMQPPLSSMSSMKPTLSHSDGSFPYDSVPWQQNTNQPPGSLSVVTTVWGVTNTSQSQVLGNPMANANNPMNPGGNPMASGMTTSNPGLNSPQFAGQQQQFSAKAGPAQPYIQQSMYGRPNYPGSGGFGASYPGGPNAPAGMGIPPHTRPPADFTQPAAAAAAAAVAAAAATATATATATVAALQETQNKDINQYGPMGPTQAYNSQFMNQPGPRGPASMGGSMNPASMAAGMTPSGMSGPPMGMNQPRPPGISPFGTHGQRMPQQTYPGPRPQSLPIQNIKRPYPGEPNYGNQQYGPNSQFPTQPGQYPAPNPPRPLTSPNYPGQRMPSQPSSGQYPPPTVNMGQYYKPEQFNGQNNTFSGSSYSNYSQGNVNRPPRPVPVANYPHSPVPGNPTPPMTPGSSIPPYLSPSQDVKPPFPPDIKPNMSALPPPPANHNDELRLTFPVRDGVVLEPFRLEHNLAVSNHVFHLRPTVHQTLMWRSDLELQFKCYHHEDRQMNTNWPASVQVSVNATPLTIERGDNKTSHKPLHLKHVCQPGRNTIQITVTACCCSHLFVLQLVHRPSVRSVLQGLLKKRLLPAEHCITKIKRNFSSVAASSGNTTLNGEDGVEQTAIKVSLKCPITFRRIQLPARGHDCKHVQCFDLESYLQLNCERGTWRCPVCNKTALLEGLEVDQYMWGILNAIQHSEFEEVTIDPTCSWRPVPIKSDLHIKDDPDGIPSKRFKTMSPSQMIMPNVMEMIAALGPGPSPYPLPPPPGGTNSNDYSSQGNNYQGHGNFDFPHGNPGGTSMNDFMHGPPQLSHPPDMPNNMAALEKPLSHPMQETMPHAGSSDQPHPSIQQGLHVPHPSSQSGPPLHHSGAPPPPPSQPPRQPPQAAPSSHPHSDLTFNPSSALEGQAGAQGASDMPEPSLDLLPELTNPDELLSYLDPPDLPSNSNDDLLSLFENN
UniProt O76080: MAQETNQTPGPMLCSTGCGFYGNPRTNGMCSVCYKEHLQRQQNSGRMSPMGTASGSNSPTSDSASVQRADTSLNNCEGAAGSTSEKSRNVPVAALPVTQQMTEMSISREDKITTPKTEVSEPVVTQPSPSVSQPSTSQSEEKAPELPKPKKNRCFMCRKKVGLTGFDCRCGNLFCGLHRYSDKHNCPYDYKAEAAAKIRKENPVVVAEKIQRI
UniProt Q7Z739: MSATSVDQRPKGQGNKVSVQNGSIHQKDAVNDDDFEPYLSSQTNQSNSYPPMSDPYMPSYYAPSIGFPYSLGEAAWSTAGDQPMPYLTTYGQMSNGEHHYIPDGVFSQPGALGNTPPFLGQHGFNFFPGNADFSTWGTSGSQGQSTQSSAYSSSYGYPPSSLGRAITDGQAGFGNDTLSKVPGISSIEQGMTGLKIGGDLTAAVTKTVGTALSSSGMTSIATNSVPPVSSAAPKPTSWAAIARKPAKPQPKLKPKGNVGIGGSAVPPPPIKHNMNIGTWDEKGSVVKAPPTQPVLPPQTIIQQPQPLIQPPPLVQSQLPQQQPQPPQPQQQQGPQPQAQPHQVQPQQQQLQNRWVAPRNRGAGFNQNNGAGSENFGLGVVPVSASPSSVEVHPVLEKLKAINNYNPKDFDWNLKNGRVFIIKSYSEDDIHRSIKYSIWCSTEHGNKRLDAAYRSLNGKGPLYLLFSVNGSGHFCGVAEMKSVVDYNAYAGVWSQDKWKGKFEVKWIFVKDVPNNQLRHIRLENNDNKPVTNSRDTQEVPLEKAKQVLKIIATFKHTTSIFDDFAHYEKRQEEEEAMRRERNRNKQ
UniProt Q8NF64: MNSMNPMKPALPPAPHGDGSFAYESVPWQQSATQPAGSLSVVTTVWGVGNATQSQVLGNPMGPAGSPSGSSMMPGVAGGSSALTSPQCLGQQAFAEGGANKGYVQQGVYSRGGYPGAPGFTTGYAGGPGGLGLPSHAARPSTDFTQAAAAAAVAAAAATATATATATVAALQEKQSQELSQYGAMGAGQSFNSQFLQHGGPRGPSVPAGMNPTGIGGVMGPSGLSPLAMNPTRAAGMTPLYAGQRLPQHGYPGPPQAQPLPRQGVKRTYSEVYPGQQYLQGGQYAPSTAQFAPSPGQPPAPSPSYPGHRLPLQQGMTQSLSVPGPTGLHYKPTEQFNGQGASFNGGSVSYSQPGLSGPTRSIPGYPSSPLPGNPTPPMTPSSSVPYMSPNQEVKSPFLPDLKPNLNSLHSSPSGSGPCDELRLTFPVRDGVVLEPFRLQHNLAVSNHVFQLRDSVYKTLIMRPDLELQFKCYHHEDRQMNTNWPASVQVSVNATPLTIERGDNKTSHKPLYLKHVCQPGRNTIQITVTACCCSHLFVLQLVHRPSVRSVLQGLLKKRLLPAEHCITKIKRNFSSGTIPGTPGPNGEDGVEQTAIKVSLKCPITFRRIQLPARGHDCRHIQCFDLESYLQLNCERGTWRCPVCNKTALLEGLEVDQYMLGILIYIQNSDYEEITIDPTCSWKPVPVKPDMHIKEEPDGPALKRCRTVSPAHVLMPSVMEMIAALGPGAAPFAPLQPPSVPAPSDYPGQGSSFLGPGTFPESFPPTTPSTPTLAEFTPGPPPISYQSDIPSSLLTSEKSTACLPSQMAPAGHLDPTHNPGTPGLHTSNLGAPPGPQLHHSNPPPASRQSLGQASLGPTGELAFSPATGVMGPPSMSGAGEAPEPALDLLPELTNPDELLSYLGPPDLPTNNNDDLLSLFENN
UniProt Q9NQW7: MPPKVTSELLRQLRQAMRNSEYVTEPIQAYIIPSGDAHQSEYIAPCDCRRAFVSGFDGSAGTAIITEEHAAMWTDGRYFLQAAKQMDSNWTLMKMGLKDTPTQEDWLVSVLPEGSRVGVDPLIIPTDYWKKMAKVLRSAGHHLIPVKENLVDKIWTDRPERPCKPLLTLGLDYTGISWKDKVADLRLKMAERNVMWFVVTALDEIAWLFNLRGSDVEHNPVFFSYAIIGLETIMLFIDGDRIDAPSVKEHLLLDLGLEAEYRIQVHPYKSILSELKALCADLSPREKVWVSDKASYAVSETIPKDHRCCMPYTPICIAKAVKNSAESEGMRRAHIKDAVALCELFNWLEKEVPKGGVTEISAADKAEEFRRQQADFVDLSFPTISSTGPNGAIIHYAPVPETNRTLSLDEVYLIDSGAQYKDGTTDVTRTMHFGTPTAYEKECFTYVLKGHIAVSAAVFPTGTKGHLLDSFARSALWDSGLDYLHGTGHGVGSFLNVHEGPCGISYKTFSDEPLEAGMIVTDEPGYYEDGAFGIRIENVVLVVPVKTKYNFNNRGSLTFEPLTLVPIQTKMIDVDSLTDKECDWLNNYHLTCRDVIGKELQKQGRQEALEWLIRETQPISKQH
UniProt A8MPS7: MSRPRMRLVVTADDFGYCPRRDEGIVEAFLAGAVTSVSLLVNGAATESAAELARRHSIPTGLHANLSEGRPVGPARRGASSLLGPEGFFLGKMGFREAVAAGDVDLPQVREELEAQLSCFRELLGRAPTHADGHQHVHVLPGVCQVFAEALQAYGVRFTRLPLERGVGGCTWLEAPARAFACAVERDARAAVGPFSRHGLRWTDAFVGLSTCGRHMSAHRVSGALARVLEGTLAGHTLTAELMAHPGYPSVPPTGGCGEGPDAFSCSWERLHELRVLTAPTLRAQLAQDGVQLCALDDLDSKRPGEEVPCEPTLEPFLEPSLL
UniProt Q16600: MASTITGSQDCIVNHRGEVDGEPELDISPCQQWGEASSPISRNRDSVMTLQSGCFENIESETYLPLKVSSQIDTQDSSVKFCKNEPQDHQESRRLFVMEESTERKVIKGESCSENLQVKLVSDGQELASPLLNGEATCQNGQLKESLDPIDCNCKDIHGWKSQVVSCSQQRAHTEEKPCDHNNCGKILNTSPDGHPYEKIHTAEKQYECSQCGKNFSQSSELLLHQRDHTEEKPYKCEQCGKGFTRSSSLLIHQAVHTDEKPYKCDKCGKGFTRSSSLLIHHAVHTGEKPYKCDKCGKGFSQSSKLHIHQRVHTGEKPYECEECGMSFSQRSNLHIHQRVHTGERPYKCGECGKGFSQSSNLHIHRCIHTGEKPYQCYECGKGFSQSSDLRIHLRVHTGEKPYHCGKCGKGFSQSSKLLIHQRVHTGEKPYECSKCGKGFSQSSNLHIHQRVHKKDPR
UniProt Q96GY0: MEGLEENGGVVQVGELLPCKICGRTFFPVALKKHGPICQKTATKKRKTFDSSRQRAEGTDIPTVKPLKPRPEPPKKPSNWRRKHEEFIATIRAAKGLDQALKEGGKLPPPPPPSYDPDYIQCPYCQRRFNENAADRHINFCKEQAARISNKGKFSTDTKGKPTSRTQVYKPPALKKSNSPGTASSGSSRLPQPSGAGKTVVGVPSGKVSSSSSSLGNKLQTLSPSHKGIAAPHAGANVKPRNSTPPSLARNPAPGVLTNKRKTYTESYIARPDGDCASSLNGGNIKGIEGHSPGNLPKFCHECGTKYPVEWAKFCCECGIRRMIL
UniProt Q9NYG2: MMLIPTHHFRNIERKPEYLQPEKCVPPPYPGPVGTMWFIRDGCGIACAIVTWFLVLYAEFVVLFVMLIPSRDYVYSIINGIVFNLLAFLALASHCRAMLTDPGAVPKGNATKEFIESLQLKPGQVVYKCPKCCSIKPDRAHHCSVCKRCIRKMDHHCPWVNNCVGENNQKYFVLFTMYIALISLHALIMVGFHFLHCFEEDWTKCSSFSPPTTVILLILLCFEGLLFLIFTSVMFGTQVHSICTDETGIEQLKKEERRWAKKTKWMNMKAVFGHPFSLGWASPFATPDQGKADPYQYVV

[1] = compound: Cc1cccc(CC(=O)N2CCc3c2ccc(-c2cn(C)c4ncnc(N)c24)c3F)n1
Procedure, shortened: as §1

nilotinib = compound: Cc1cn(-c2cc(NC(=O)c3ccc(C)c(Nc4nccc(-c5cccnc5)n4)c3)cc(C(F)(F)F)c2)cn1 [nilotinib]
Procedure, shortened: as §1

[2] = compound: Cc1nc(Nc2n[nH]c3c2CN(C(=O)N[C@H](CN(C)C)c2ccccc2)C3(C)C)c2sccc2n1
Procedure, shortened: as §1

dasatinib = compound: Cc1nc(Nc2ncc(C(=O)Nc3c(C)cccc3Cl)s2)cc(N2CCN(CCO)CC2)n1 [dasatinib]
Procedure, shortened: as §1

[3] = compound: Cc1ncc(-c2ccnc(Nc3ccc(S(C)(=O)=O)cc3)n2)n1C(C)C
Procedure, shortened: as §1

[4] = compound: Cn1cc(-c2ccc3c(c2)CCN3C(=O)Cc2cccc(C(F)(F)F)c2)c2c(N)ncnc21
Procedure, shortened: as §1

[5] = compound: Cn1cc(-c2ccc3nnc(C(F)(F)c4ccc5ncccc5c4)n3n2)cn1
Procedure, shortened: as §1

tipifarnib = compound: Cn1cncc1[C@@](N)(c1ccc(Cl)cc1)c1ccc2c(c1)c(-c1cccc(Cl)c1)cc(=O)n2C [tipifarnib]
Procedure, shortened: as §1

mubritinib = compound: FC(F)(F)c1ccc(/C=C/c2nc(COc3ccc(CCCCn4ccnn4)cc3)co2)cc1 [mubritinib]
Procedure, shortened: as §1

Measured: log2 fold change

YY1 (UniProt P25490)
active: [2] -0.304
inactive: bafetinib -0.044 | [1] 0.003 | nilotinib -0.033 | dasatinib -0.001 | [3] -0.207 | [4] 0.004 | [5] -0.056 | tipifarnib 0.009 | mubritinib -0.055

YLPM1 (UniProt P49750)
inactive: bafetinib 0.083 | [1] -0.05 | nilotinib -0.044 | [2] -0.075 | dasatinib -0.062 | [3] -0.011 | [4] 0.077 | [5] 0.031 | tipifarnib -0.048 | mubritinib -0.038

ZC3H14 (UniProt Q6PJT7)
inactive: bafetinib -0.083 | [1] -0.037 | nilotinib -0.068 | [2] -0.085 | dasatinib 0.027 | [3] 0.043 | [4] -0.155 | [5] 0.093 | tipifarnib 0.024 | mubritinib -0.149

YTHDF1 (UniProt Q9BYJ9)
inactive: bafetinib -0.004

Taken from the listing (2 entries):
ZC3H14 (UniProt Q6PJT7)
inactive: bafetinib -0.083 | [1] -0.037 | nilotinib -0.068 | [2] -0.085 | dasatinib 0.027 | [3] 0.043 | [4] -0.155 | [5] 0.093 | tipifarnib 0.024 | mubritinib -0.149

YTHDF1 (UniProt Q9BYJ9)
inactive: bafetinib -0.004

(list continues)

ZMIZ1 (UniProt Q9ULJ6)
inactive: bafetinib -0.065 | [1] 0.007 | nilotinib -0.014 | [2] -0.021 | dasatinib 0.016 | [3] -0.073 | [4] 0.028 | [5] 0.02 | tipifarnib -0.034 | mubritinib 0.067

ZNF207 isoform 2 (UniProt O43670)
inactive: bafetinib 0.165 | [1] 0.122 | nilotinib -0.104 | [2] 0.044 | dasatinib 0.056 | [3] -0.093 | [4] -0.292 | [5] -0.091 | tipifarnib 0.024 | mubritinib -0.012

ZC3H8 (UniProt Q8N5P1)
inactive: bafetinib 0.052 | [1] 0.026 | nilotinib 0.016 | [2] 0.081 | dasatinib 0.123 | [3] 0.036 | [4] -0.084 | [5] -0.056 | tipifarnib 0.043 | mubritinib -0.102

2 records drawn at random from those above:
YTHDF1 (UniProt Q9BYJ9)
inactive: bafetinib -0.004

ZC3H8 (UniProt Q8N5P1)
inactive: bafetinib 0.052 | [1] 0.026 | nilotinib 0.016 | [2] 0.081 | dasatinib 0.123 | [3] 0.036 | [4] -0.084 | [5] -0.056 | tipifarnib 0.043 | mubritinib -0.102

Additional records follow:

ZFPL1 (UniProt O95159)
inactive: bafetinib -0.022 | [1] -0.041 | nilotinib -0.047 | [2] -0.034 | dasatinib 0.04 | [3] -0.01 | [4] 0.049 | [5] -0.03 | tipifarnib 0.008 | mubritinib -0.007

ZNF225 (UniProt Q9UK10)
inactive: bafetinib -0.08

YIPF6 (UniProt Q96EC8)
inactive: bafetinib -0.169 | [1] -0.006 | nilotinib 0.063 | [2] -0.042 | dasatinib 0.256 | [3] -0.023 | [4] -0.035 | [5] 0.032 | tipifarnib -0.035 | mubritinib 0.036

ZBTB43 (UniProt O43298)
inactive: bafetinib -0.006 | [1] -0.025 | nilotinib -0.157 | [2] 0.043 | dasatinib -0.034 | [3] 0.16 | [4] 0.023 | [5] -0.054

ZC3H4 (UniProt Q9UPT8)
inactive: bafetinib 0.122 | [1] -0.057 | nilotinib 0.047 | [2] 0.093 | dasatinib 0.158 | [3] 0.031 | [4] -0.237 | [5] -0.098 | tipifarnib 0.179 | mubritinib -0.09

ZFAND5 (UniProt O76080)
inactive: bafetinib -0.022 | [1] -0.032 | nilotinib 0.098 | [2] 0.038 | dasatinib 0.082 | [3] -0.099 | [4] -0.02 | [5] -0.036 | tipifarnib 0.031 | mubritinib 0.099

YTHDF3 (UniProt Q7Z739)
inactive: bafetinib 0.006 | [1] 0.002 | nilotinib -0.04 | [2] 0.001 | dasatinib -0.059 | [3] -0.018 | [4] 0.014 | [5] 0.027 | tipifarnib 0.026 | mubritinib 0.01

ZDHHC17 (UniProt Q8IUH5)
inactive: bafetinib -0.007 | [1] -0.082 | nilotinib -0.004 | [2] -0.012 | dasatinib -0.002 | [3] -0.022 | [4] 0.018 | [5] -0.029 | tipifarnib 0.032 | mubritinib 0.051

ZMIZ2 (UniProt Q8NF64)
inactive: bafetinib -0.143 | [1] -0.086 | nilotinib -0.217 | [2] -0.06 | dasatinib -0.035 | [3] 0.066 | [4] 0.05 | [5] 0.1 | tipifarnib 0.039 | mubritinib 0.119

ZMAT2 (UniProt Q96NC0)
inactive: bafetinib -0.053 | [1] -0.037 | nilotinib 0.012 | [2] 0.07 | dasatinib 0.042 | [3] -0.027 | [4] -0.023 | [5] -0.051 | tipifarnib -0.058 | mubritinib 0.049

ZFYVE19 (UniProt Q96K21)
inactive: bafetinib -0.081 | [1] -0.046 | nilotinib 0.055 | [2] 0.015 | dasatinib 0.038 | [3] -0.012 | [4] -0.002 | [5] 0.01 | tipifarnib 0.06 | mubritinib 0.029

YRDC (UniProt Q86U90)
inactive: bafetinib -0.042 | [1] -0.009 | nilotinib -0.011 | [2] -0.034 | dasatinib 0.01 | [3] 0.03 | [4] 0.045 | [5] -0.009 | tipifarnib -0.003 | mubritinib 0.035

XPNPEP1 isoform 3 (UniProt Q9NQW7)
inactive: bafetinib -0.047 | [1] -0.013 | nilotinib -0.036 | [2] 0.014 | dasatinib -0.086 | [3] -0.028 | [4] 0.084 | [5] 0.039 | tipifarnib -0.033 | mubritinib 0.042

YDJC (UniProt A8MPS7)
inactive: bafetinib 0.006 | [1] -0.032 | nilotinib 0.017 | [2] 0.006 | dasatinib -0.117 | [3] 0.014 | [4] 0.072 | [5] 0.008 | tipifarnib -0.04 | mubritinib -0.006

YARS2 (UniProt Q9Y2Z4)
inactive: bafetinib 0.064 | [1] 0.01 | nilotinib 0.022 | [2] -0.323 | dasatinib -0.237 | [3] 0.083 | [4] 0.041 | [5] 0.022 | tipifarnib 0.048 | mubritinib -0.158

XPO6 (UniProt Q96QU8)
inactive: bafetinib 0.057 | [1] -0.05 | nilotinib -0.143 | [2] -0.148 | dasatinib -0.109 | [3] 0.027 | [4] -0.001 | [5] -0.117 | tipifarnib -0.111 | mubritinib 0.092

ZCCHC8 (UniProt Q6NZY4)
inactive: bafetinib -0.043 | [1] 0.004 | nilotinib -0.006 | [2] 0.043 | dasatinib -0.108 | [3] 0.026 | [4] -0.049 | [5] -0.062 | tipifarnib -0.023 | mubritinib 0.049

XPO1 (UniProt O14980)
inactive: bafetinib -0.003 | [1] 0.042 | nilotinib -0.114 | [2] -0.037 | dasatinib -0.154 | [3] 0.001 | [4] 0.005 | [5] -0.008 | tipifarnib -0.159 | mubritinib 0.042

ZNF239 (UniProt Q16600)
inactive: bafetinib -0.452 | [1] 0 | nilotinib -0.022 | [2] -0.012 | dasatinib -0.074 | [3] 0.275 | [4] 0.306 | [5] -0.102 | tipifarnib 0.178 | mubritinib -0.483

ZC2HC1A (UniProt Q96GY0)
inactive: bafetinib 0.139 | [1] -0.093 | nilotinib 0.162 | [2] 0.041 | dasatinib 0.162 | [3] 0.093 | [4] -0.06 | [5] -0.06 | tipifarnib 0.073 | mubritinib -0.005

ZDHHC3 isoform 2 (UniProt Q9NYG2)
inactive: bafetinib -0.131 | [1] -0.043 | nilotinib -0.091 | [2] -0.002 | dasatinib -0.02 | [3] -0.001 | [4] 0.024 | [5] 0 | tipifarnib 0.075 | mubritinib 0.039

YWHAQ (UniProt P27348)
active: [1] 0.694
inactive: bafetinib -0.035 | nilotinib 0.018 | [2] -0.033 | dasatinib -0.149 | [3] -0.026 | [4] 0.124 | [5] -0.066 | tipifarnib -0.112 | mubritinib 0.049
